{"source": "PubChem BioAssay AID2685", "about": "(National Center for Advancing Translational Sciences (NCATS), 2010)", "test": "qHTS Assay for Lipid Storage Modulators in Drosophila S3 Cells;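 as to cell number change: cells counted by Cell Tracker Red CMTPX staining in the red channel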", "details": "BODIPY lipid droplet fluorescence, 18-24 h; for cell number change: measured here: cell count max response, cells fed with added oleic acid", "in_short": "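Laser-scanning cytometry quantifies lipid droplet accumulation (500–530 nm total intensity; droplet/cell object ratio) in oleic acid-fed (400 uM added) Drosophila S3 cells treated with a concentration series. 20 uM Triacsin C defined 100% inhibition.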", "key": {"[1]": {"details": "measured here: lipid fluorescence (Fed channel) AC50, cells fed with added oleic acid"}, "[2]": {"details": "measured here: cell number channel AC50, cells fed with added oleic acid"}}, "note": "Some of the results follow. Further columns of the screen follow, without active or inactive calls. Compounds called inactive in the main read-out are mostly missing here. Potencies come from curve fits of mixed quality, noted in brackets."}
{"smiles": "CCC(C)C(=O)Nc1nc(C)c(-c2csc(Nc3ccccc3OC)n2)s1", "note": "(centres undefined)", "values": [{"measurement": "cell number change", "value": -28.9, "unit": "%"}, {"measurement": "AC50", "setting": "[1]", "value": "6.51 µM [falling, full curve, poor fit]"}]}
{"smiles": "CCOC(=O)c1ccc(NC(=S)Nc2cccc(C)n2)cc1", "values": [{"measurement": "cell number change", "value": -39.4, "unit": "%"}, {"measurement": "AC50", "setting": "[2]", "value": "29.1 µM [falling, single point]"}, {"measurement": "AC50", "setting": "[1]", "value": "0.651 µM [falling, full curve, poor fit]"}]}
{"smiles": "COc1cccc(/C=N/n2cnc3cc(C)c(C)cc32)c1OC", "values": [{"measurement": "cell number change", "value": -22.5, "unit": "%"}, {"measurement": "AC50", "setting": "[1]", "value": "32.6 µM [falling, single point]"}]}
{"smiles": "O=C(Nc1nc(-c2ccc(Cl)cc2Cl)cs1)C1CCCO1", "note": "(centres undefined)", "values": [{"measurement": "cell number change", "value": 20.4, "unit": "%"}, {"measurement": "AC50", "setting": "[1]", "value": "4.11 µM [rising, full curve, poor fit]"}]}
{"smiles": "CCOc1cc2[nH]c(=S)n(Cc3ccc(C(=O)N4CCN(C)CC4)cc3)c(=O)c2cc1OCC", "values": [{"measurement": "cell number change", "value": -23.6, "unit": "%"}, {"measurement": "AC50", "setting": "[1]", "value": "4.11 µM [rising, partial curve]"}]}
{"smiles": "Cc1cc(C)c2c(=O)n(CC(=O)Nc3ccc(Cl)cc3)sc2n1", "values": [{"measurement": "cell number change", "value": -61.1, "unit": "%"}, {"measurement": "AC50", "setting": "[2]", "value": "32.6 µM [falling, partial curve, poor fit]"}, {"measurement": "AC50", "setting": "[1]", "value": "18.4 µM [falling, partial curve]"}]}
{"smiles": "COc1cccc(/C(C)=N/Nc2ccc(S(=O)(=O)N3CCCCC3)cn2)c1", "values": [{"measurement": "cell number change", "value": -14, "unit": "%"}, {"measurement": "AC50", "setting": "[1]", "value": "32.6 µM [falling, single point]"}]}
{"smiles": "CN=c1sc2ccccc2n1CC(O)c1ccccc1", "note": "(centres undefined)", "values": [{"measurement": "cell number change", "value": -22.8, "unit": "%"}, {"measurement": "AC50", "setting": "[2]", "value": "0.164 µM [falling, full curve, poor fit]"}, {"measurement": "AC50", "setting": "[1]", "value": "0.146 µM [falling, full curve, poor fit]"}]}
{"smiles": "O=C(Oc1ccccc1O)c1cccc2ccccc12", "values": [{"measurement": "cell number change", "value": -50.7, "unit": "%"}, {"measurement": "AC50", "setting": "[2]", "value": "1.03 µM [falling, full curve, poor fit]"}, {"measurement": "AC50", "setting": "[1]", "value": "1.16 µM [falling, full curve]"}]}
{"smiles": "Cc1nn(Cc2ccccc2)c2sc(C(=O)NCc3cccnc3)cc12", "values": [{"measurement": "cell number change", "value": -21.6, "unit": "%"}]}
{"smiles": "CC(NC(=O)c1cc2cc([N+](=O)[O-])ccc2oc1=O)C1CCCO1", "note": "(centres undefined)", "values": [{"measurement": "cell number change", "value": 14.8, "unit": "%"}, {"measurement": "AC50", "setting": "[2]", "value": "0.461 µM [falling, single point]"}, {"measurement": "AC50", "setting": "[1]", "value": "18.4 µM [rising, single point]"}]}
{"smiles": "CC1(C)Cc2nc3sc4c(SCC(=O)NC(c5ccccc5)c5ccccc5)ncnc4c3cc2CO1", "values": [{"measurement": "cell number change", "value": -7.94, "unit": "%"}, {"measurement": "AC50", "setting": "[1]", "value": "0.164 µM [falling, full curve, poor fit]"}]}
{"smiles": "O=c1c(-c2ccccc2Cl)coc2c(CN3CCCCC3)c(O)ccc12", "values": [{"measurement": "AC50", "setting": "[1]", "value": "0.58 µM [falling, single point]"}]}
{"smiles": "CCc1ccc(CNC(=O)c2ccc(OC3CCN(C(C)=O)CC3)c(OC)c2)nc1", "values": [{"measurement": "cell number change", "value": 31.9, "unit": "%"}, {"measurement": "AC50", "setting": "[2]", "value": "0.092 µM [rising, full curve]"}, {"measurement": "AC50", "setting": "[1]", "value": "29.1 µM [rising, single point]"}]}
{"smiles": "CC(=O)N1CCN(c2ccccc2NC(=O)c2cccc3c(Cl)cccc23)CC1", "values": [{"measurement": "cell number change", "value": 34.5, "unit": "%"}, {"measurement": "AC50", "setting": "[2]", "value": "0.00461 µM [rising, full curve, poor fit]"}]}
{"smiles": "COc1ccccc1CN(C)C(=O)c1cccc(S(=O)(=O)N2CCN(Cc3ccccc3)CC2)c1", "values": [{"measurement": "cell number change", "value": 72.7, "unit": "%"}, {"measurement": "AC50", "setting": "[2]", "value": "8.2 µM [rising, partial curve]"}]}
{"smiles": "Cc1[nH]n(-c2ccc(Cl)cc2)c(=O)c1C=Nc1ccc(S(=O)(=O)N2CCOCC2)cc1", "values": [{"measurement": "cell number change", "value": -29.5, "unit": "%"}, {"measurement": "AC50", "setting": "[2]", "value": "0.206 µM [falling, full curve]"}, {"measurement": "AC50", "setting": "[1]", "value": "2.06 µM [falling, partial curve]"}]}
{"smiles": "CCC(C)Sc1cc(C)c(C#N)c2nc3ccccc3n12", "note": "(centres undefined)", "values": [{"measurement": "cell number change", "value": 83.3, "unit": "%"}, {"measurement": "AC50", "setting": "[2]", "value": "6.51 µM [falling, single point]"}]}
{"smiles": "CC(C)c1ccc(NC(=O)CCCC(=O)NCCc2ccccc2)cc1", "values": [{"measurement": "cell number change", "value": -8.11, "unit": "%"}]}
{"smiles": "O=C(COC(=O)c1cc([N+](=O)[O-])ccc1N1CCOCC1)c1ccc(Br)cc1", "values": [{"measurement": "cell number change", "value": -16.6, "unit": "%"}]}
{"smiles": "Cc1cc(Nc2ccc(F)cc2)n2nc(C)nc2n1", "values": [{"measurement": "cell number change", "value": 13.8, "unit": "%"}, {"measurement": "AC50", "setting": "[1]", "value": "6.51 µM [rising, single point]"}]}
{"smiles": "Nc1ccccc1C(=O)N/N=C1\\C2CN3CCN(C2)CC1(c1ccccc1)C3", "values": [{"measurement": "cell number change", "value": -4.9, "unit": "%"}, {"measurement": "AC50", "setting": "[1]", "value": "29.1 µM [falling, partial curve]"}]}
{"smiles": "O=C(Nc1ccc([N+](=O)[O-])cn1)C1CC2CCC1C2", "note": "(centres undefined)", "values": [{"measurement": "cell number change", "value": 14.9, "unit": "%"}, {"measurement": "AC50", "setting": "[1]", "value": "8.2 µM [rising, partial curve, poor fit]"}]}
{"smiles": "O=C(Nc1ccccc1NS(=O)(=O)c1ccc(F)cc1)C1CCCC1", "values": [{"measurement": "cell number change", "value": -13.8, "unit": "%"}, {"measurement": "AC50", "setting": "[2]", "value": "1.84 µM [rising, partial curve, poor fit]"}, {"measurement": "AC50", "setting": "[1]", "value": "0.651 µM [rising, full curve, poor fit]"}]}
{"smiles": "COc1ccc(CCNC(=O)c2cc(-c3ccncc3)nc3ccc(S(=O)(=O)N4CCOCC4)cc23)cc1OC", "values": [{"measurement": "cell number change", "value": 1.49, "unit": "%"}, {"measurement": "AC50", "setting": "[1]", "value": "5.17 µM [rising, full curve, poor fit]"}]}
{"smiles": "COc1ccc([C@@H]2CC=C(C(=O)O)[C@H](c3ccc(F)cc3)N2S(=O)(=O)c2ccc(C)cc2)cc1OC", "values": [{"measurement": "cell number change", "value": 10.2, "unit": "%"}, {"measurement": "AC50", "setting": "[2]", "value": "0.0651 µM [rising, full curve, poor fit]"}, {"measurement": "AC50", "setting": "[1]", "value": "16.4 µM [rising, single point]"}]}
{"smiles": "CN1C(=O)C2CN(CCc3ccccc3)CNC2N(C)C1=O", "note": "(centres undefined)", "values": [{"measurement": "cell number change", "value": 0.68, "unit": "%"}, {"measurement": "AC50", "setting": "[1]", "value": "0.259 µM [falling, full curve, poor fit]"}]}
{"smiles": "COc1ccccc1NC(=O)C(=O)NCCC1CCCCN1S(=O)(=O)c1ccccc1", "note": "(centres undefined)", "values": [{"measurement": "cell number change", "value": -27.6, "unit": "%"}]}
{"smiles": "CCOC(=O)c1c(NC(=O)CN2CCN(C(=O)c3ccco3)CC2)sc2c1CCCC2", "values": [{"measurement": "cell number change", "value": -60.2, "unit": "%"}, {"measurement": "AC50", "setting": "[2]", "value": "20.6 µM [falling, single point]"}, {"measurement": "AC50", "setting": "[1]", "value": "23.1 µM [falling, single point]"}]}
{"smiles": "CCOC(=O)c1c(NC(=O)CSc2nnnn2-c2ccc(OC)cc2)sc(C)c1C", "values": [{"measurement": "AC50", "setting": "[2]", "value": "3.26 µM [rising, single point]"}, {"measurement": "AC50", "setting": "[1]", "value": "5.17 µM [rising, single point]"}]}
{"smiles": "CC1CC(C)CN(C(=O)c2ccc3c(c2NCCO)C(=O)c2ccccc2C3=O)C1", "note": "(centres undefined)", "values": [{"measurement": "cell number change", "value": -27.2, "unit": "%"}, {"measurement": "AC50", "setting": "[2]", "value": "3.66 µM [falling, full curve, poor fit]"}, {"measurement": "AC50", "setting": "[1]", "value": "3.66 µM [falling, full curve]"}]}
{"smiles": "COc1cccc(CN2CCCC(C(=O)N3CCCCC3)C2)c1", "note": "(centres undefined)", "values": [{"measurement": "cell number change", "value": 42.3, "unit": "%"}, {"measurement": "AC50", "setting": "[2]", "value": "0.651 µM [rising, full curve]"}, {"measurement": "AC50", "setting": "[1]", "value": "6.51 µM [rising, single point]"}]}
{"smiles": "Cc1ccc(C(=O)N/N=C\\c2ccc([N+](=O)[O-])o2)cn1", "values": [{"measurement": "cell number change", "value": 6.21, "unit": "%"}, {"measurement": "AC50", "setting": "[1]", "value": "16.4 µM [falling, single point]"}]}
{"smiles": "Cc1ccc(S(=O)(=O)N2CCN(Cc3ccccc3C(F)(F)F)CC2)cc1", "values": [{"measurement": "cell number change", "value": 15.5, "unit": "%"}]}
